For 3 substances, binding results are on record in PMC11610139.

The chains behind the UniProt entries cited, without tags or fusion partners. Residues count along the entry.
UniProt P55854, residues 1-92: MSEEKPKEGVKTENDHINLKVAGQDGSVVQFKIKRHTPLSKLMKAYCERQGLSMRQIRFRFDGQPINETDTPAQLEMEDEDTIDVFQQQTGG
UniProt O75592: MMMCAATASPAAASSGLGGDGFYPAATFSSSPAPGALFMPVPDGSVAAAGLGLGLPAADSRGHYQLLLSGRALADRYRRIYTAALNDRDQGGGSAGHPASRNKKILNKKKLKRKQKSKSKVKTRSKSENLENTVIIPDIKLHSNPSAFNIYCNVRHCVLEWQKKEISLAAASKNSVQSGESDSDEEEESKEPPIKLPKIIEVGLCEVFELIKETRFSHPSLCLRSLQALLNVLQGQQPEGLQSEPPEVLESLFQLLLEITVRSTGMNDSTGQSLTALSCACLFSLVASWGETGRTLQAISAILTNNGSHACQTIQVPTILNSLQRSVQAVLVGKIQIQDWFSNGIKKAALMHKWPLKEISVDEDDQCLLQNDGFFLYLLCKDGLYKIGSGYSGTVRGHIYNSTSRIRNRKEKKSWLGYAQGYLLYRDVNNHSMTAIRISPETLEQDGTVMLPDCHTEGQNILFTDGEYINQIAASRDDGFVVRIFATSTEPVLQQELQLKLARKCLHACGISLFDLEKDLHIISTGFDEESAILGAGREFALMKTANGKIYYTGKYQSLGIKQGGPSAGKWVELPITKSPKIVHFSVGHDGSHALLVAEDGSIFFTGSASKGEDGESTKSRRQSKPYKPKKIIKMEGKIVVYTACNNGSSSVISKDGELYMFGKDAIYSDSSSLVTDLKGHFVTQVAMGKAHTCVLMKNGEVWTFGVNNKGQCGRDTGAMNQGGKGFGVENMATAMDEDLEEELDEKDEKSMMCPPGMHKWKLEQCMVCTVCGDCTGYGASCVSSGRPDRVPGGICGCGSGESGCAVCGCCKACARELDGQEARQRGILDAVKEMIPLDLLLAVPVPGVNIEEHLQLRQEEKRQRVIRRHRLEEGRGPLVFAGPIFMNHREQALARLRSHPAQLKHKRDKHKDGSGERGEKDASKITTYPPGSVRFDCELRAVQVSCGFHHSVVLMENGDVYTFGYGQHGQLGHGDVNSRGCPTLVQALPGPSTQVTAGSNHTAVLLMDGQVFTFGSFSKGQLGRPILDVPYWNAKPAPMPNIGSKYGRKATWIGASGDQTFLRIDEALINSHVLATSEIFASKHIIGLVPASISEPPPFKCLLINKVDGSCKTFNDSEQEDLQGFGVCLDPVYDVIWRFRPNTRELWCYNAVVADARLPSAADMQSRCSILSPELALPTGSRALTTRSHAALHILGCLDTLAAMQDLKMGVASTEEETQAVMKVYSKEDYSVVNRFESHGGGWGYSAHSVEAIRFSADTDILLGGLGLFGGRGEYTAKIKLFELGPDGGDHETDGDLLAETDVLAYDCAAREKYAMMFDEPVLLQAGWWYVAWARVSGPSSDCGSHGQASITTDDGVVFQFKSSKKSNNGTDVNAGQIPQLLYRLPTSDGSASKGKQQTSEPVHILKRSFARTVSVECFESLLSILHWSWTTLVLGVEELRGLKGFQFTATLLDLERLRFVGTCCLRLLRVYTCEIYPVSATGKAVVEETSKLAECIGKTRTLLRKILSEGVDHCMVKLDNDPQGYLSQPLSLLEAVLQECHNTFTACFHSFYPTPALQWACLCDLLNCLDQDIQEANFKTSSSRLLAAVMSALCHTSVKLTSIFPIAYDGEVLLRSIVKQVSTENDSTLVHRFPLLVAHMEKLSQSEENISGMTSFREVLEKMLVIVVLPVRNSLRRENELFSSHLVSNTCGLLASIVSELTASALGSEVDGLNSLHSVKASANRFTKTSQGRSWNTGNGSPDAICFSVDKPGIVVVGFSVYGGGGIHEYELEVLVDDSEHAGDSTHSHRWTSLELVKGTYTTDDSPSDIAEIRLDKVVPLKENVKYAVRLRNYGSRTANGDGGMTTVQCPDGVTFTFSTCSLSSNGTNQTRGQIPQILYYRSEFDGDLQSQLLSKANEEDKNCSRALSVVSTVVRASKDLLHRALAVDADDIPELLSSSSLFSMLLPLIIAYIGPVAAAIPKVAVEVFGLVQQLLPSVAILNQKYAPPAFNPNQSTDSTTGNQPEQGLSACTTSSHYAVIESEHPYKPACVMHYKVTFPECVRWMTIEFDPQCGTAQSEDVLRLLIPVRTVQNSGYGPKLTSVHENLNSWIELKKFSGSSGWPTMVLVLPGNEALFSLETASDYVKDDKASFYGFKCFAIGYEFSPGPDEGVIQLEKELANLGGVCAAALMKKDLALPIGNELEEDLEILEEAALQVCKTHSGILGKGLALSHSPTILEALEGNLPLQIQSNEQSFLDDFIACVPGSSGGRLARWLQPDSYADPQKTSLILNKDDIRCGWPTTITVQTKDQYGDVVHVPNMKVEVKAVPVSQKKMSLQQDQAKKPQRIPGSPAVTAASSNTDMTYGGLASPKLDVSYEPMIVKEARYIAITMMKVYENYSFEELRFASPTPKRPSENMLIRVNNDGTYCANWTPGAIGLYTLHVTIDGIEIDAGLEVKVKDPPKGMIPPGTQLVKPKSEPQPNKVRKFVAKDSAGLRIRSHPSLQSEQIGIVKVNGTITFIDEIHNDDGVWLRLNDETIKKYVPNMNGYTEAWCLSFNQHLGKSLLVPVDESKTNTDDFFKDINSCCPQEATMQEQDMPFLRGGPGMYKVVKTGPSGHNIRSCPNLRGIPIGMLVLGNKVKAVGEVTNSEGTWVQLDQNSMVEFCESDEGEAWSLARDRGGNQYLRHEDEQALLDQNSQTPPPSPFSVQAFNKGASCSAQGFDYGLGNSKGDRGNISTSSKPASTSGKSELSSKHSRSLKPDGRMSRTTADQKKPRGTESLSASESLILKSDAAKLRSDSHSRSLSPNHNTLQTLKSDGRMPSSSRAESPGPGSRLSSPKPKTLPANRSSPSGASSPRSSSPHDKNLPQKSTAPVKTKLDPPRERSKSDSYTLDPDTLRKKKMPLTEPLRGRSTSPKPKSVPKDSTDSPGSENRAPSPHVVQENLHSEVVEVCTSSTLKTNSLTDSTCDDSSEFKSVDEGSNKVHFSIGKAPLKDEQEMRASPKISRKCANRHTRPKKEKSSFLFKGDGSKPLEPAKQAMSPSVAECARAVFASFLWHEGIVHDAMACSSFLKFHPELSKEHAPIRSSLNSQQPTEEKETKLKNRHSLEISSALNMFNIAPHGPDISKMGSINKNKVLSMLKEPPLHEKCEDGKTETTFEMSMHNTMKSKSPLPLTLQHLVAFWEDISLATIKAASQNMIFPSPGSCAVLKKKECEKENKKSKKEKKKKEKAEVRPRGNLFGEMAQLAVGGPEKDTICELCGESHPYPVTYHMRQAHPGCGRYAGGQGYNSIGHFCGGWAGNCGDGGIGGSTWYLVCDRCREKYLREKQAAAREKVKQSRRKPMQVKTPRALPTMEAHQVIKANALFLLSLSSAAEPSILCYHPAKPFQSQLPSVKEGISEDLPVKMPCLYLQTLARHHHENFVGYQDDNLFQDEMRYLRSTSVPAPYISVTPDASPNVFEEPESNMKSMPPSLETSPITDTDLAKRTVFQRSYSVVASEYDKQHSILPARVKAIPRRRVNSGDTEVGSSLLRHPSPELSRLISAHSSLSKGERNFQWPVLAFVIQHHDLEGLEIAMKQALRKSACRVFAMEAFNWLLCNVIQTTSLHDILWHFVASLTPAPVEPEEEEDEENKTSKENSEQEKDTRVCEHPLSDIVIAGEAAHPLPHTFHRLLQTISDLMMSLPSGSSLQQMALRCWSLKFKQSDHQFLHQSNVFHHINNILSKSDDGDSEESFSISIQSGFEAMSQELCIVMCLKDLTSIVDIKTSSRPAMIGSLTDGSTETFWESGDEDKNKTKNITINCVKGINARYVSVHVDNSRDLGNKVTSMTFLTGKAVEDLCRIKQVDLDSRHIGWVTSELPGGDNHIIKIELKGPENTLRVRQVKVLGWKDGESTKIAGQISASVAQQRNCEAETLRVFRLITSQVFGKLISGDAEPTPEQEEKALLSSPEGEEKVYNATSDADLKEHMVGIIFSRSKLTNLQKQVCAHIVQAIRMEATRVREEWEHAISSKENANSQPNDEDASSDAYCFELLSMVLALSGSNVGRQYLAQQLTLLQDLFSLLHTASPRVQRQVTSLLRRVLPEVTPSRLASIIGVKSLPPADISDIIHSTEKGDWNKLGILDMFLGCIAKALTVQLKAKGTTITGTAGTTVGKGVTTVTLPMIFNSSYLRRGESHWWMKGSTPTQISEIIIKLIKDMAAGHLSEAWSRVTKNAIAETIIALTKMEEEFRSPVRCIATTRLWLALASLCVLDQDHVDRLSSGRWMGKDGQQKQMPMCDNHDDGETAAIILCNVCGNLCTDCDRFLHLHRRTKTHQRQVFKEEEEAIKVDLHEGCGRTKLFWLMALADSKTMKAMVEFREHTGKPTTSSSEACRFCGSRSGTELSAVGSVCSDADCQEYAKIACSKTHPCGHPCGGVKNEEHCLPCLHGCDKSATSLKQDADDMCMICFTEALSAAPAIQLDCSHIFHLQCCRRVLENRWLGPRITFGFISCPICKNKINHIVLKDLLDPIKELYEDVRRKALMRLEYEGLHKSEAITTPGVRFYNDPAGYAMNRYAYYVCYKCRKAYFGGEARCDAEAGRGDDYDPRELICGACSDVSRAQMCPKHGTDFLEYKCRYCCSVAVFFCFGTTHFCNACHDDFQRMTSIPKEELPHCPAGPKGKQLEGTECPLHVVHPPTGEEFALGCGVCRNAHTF
UniProt Q13263: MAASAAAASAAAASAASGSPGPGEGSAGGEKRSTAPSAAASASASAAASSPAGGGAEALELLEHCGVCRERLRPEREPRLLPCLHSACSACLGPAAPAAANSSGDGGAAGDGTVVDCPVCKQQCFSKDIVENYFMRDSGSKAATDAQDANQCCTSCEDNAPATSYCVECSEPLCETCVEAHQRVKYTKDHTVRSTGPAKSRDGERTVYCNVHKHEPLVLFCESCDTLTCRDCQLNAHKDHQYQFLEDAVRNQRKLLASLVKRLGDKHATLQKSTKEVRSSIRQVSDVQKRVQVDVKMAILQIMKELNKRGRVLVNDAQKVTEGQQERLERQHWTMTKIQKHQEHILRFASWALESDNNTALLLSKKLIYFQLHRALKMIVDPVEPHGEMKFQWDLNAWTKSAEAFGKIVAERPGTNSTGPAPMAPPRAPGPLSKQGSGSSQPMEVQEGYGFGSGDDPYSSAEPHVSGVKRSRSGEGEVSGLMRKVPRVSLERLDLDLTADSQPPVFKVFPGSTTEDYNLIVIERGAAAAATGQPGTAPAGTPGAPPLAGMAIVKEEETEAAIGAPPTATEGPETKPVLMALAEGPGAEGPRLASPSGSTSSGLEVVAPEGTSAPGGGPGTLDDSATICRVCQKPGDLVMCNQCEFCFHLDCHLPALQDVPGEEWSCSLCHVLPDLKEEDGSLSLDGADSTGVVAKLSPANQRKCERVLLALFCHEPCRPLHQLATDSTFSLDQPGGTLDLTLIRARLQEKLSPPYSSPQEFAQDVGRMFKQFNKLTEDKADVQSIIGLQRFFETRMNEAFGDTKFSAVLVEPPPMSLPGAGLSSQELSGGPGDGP

Results are given in words; binding and its absence hold for the method and conditions named. In cells and extracts the contact can be indirect. Here binding means that the protein was enriched with, or labelled near, the bait; the list need not be complete.

The target in this assay is T1, HDAC7 (UniProt Q8WUI4).
T1 sequence: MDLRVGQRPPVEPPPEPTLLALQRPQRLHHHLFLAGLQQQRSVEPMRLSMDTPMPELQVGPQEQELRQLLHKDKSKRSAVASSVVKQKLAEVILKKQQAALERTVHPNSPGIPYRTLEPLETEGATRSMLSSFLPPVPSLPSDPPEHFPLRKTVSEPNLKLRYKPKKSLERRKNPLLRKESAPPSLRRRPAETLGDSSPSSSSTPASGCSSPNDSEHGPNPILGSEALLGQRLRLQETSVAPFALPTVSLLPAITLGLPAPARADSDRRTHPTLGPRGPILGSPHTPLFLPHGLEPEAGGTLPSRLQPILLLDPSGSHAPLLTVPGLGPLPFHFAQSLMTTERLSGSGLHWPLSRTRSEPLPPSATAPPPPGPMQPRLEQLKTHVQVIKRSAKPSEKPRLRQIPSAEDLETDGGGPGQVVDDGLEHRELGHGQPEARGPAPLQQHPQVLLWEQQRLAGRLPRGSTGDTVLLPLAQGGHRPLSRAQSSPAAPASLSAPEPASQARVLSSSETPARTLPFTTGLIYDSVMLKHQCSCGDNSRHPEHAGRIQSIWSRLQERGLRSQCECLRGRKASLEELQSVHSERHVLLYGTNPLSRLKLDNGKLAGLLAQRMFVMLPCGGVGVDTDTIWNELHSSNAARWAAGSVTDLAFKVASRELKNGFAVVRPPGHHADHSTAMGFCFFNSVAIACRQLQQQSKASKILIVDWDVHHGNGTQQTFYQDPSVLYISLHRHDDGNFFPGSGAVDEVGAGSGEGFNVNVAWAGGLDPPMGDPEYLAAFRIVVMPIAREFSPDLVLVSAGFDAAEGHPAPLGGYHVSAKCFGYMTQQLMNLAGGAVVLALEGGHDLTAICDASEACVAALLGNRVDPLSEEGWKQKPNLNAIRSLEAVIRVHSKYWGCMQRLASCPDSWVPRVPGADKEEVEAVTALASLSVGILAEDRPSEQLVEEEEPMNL
The experiment in a line: affinity purification with mass spectrometry; HDAC7 immunoprecipitation, liquid chromatography coupled with tandem mass spectrometry.

Consider SUMO3 (from UniProt P55854 1-92), for which the binding result was “binds”.

Turning to “MYCBP2 (from UniProt O75592 1-4678) (enzyme)”, the binding result was “binds”.

Regarding “TRIM28 (from UniProt Q13263 1-835) (enzyme)”, the binding result is “binds”.
